Source: PubChem BioAssay AID540276 (National Center for Advancing Translational Sciences (NCATS), 2011)
Among all 300,000 compounds or so, about 5,400 (1.8%) were called active. This list was built around the results that the source calls inconclusive (neither active nor inactive); the mix of calls is not that of the screen. Calls follow the shape of the full dose curve; tested in HEK293 cells. A potency beside an inconclusive call is a rough fit, not a confirmed value.

Assay: qHTS for inhibitors of binding or entry into cells for Marburg Virus
Settings: Marburg virus pseudotyped entry inhibition, cell reporter; series mostly up to 37.8 µM
Potency is read from the fitted curve at half-maximal effect.

SMILES	Potency
COc1ccc(-n2nnnc2SCC#CCO)cc1	inconclusive: 18.3 µM [inhibitor, single point]
COc1ccc(/C=N/NC(=O)c2cc(-c3cccc(C)c3)nc3ccccc23)cc1O	inconclusive: 28.2 µM [inhibitor, single point]
Cc1cc(C)c(S(=O)(=O)N2CCC3(CC2)OCCN3S(=O)(=O)c2cccs2)c(C)c1	inconclusive: 35.5 µM [inhibitor, single point]
COc1ccc(C(=O)C2C(c3ccc(-c4ccccc4[N+](=O)[O-])o3)NC(=O)NC2(O)C(F)(F)F)cc1 (centres undefined)	inconclusive: 0.631 µM [inhibitor, full curve, poor fit]
NS(=O)(=O)c1ccc(CCNC(=O)C2CCC(Cn3c(=S)[nH]c4ccccc4c3=O)CC2)cc1 (centres undefined)	inconclusive: 35.5 µM [inhibitor, single point]
COc1ccccc1/C=C/C=N/Nc1cccc(C(=O)O)c1	inconclusive: 22.4 µM [inhibitor, single point]
Cc1cccc(/C=C(\C(=O)O)c2ccc(S(=O)(=O)N3CCCC3)s2)c1	inactive
CCCN1CCC(NC(=S)Nc2ccc(C(=O)OCC)cc2)CC1	inconclusive: 11.2 µM [inhibitor, single point]
O=C(/C=C/c1c[nH]c2ccccc12)c1ccccc1	inconclusive: 3.66 µM [activator, partial curve]
Cc1cc(NC(=O)CCC(=O)N(Cc2ccco2)C2(C(=O)NC3CCCC3)CCCCC2C)no1 (centres undefined)	inconclusive: 12.6 µM [inhibitor, partial curve, poor fit]
Cc1ccc(S(=O)(=O)N2CCCOC2CNC(=O)C(=O)NC2CCCC2)cc1 (centres undefined)	inactive
Cc1cc(C)c2c(=O)cc(C(=O)Nc3sc4c(c3C(=O)NCC3CCCO3)CCCC4)oc2c1 (centres undefined)	inactive
O=C(Nc1cnc2sccn2c1=O)c1ccc(Cl)cc1Cl	inconclusive: 14.6 µM [inhibitor, partial curve, poor fit]
CN(C)CCCOc1ccc(Cl)cc1Br	inconclusive: 29.1 µM [inhibitor, single point]
COc1ccc(NS(=O)(=O)c2ccc(N3CCCC3=O)cc2)cn1	inconclusive: 3.98 µM [inhibitor, full curve, poor fit]
CSC1=NC(=O)C2=C3CC(C)(C)OCC3SC2=N1 (centres undefined)	inactive
CC(C)(C)c1ccc(C(=O)NC2CCS(=O)(=O)C2)cc1 (centres undefined)	inactive
COc1cccc2c1C(=O)c1c(O)c3c(c(O)c1C2=O)CC(O)(C(C)=NNC(=O)c1ccc(Cl)c(Cl)c1)CC3OC1CC(N)C(O)C(C)O1 (centres undefined)	active: 0.447 µM
Cc1ccc(C)c(S(=O)(=O)N2CCCCC2CCNC(=O)C(=O)NCc2ccccc2)c1 (centres undefined)	inconclusive: 22.4 µM [inhibitor, single point]
COc1ccc(-n2nc(C(=O)NCCCN3CCOCC3)c3ccccc3c2=O)c(OC)c1	inconclusive: 6.31 µM [inhibitor, single point]
CC1CCN(C(=O)c2cc3ccccc3c(=O)o2)CC1	inconclusive: 17.8 µM [activator, single point]
O=C(N/C(=C\c1ccco1)C(=O)N1CCOCC1)c1ccccc1Cl	inactive
C=C(C)CNC(=S)Nc1nc2c(cc1C(=O)OCC)CCCC2	inactive

SMILES	Potency
COc1cccc(CN2CC(C(=O)N3CCCCCC3)CCC2=O)c1 (centres undefined)	inconclusive: 35.5 µM [activator, single point]
O=C(NC(C(=O)c1ccccc1)N1CCCCCC1)c1ccco1 (centres undefined)	inconclusive: 1.26 µM [activator, partial curve, poor fit]
CCCCOCC1CN(CCCC)S(=O)(=O)c2c(cccc2N2CCCC2)O1 (centres undefined)	inconclusive: 3.15 µM [inhibitor, full curve, poor fit]
Cc1ccc(C2=C/C(=C/c3cccs3)C(=O)O2)cc1	inconclusive: 2.51 µM [activator, full curve, poor fit]
Cc1cccc(S(=O)(=O)c2c(N)n(/N=C/c3cccnc3)c3nc4ccccc4nc23)c1	inconclusive: 29.1 µM [inhibitor, single point]
COc1ccc2[nH]c(=O)c(CN(C(=O)c3cccnc3)c3ccc(C)c(C)c3)cc2c1	inconclusive: 32.6 µM [inhibitor, single point]
Cc1ccc(Nc2sc(C(=O)c3ccccc3)c(N)c2S(=O)(=O)c2ccccc2)cc1Cl	inactive
Cc1ccccc1Cn1nnc(-c2ccc(F)cc2)n1	inactive
Cc1ccc(N2CCN(C(=O)c3cc4cc5ccc(C)cc5nc4s3)CC2C)cc1 (centres undefined)	inactive
Cc1ccc2oc(=O)c3cc(C(=O)NCCCN4CCCCCC4)sc3c2c1	inconclusive: 35.5 µM [inhibitor, single point]
Cc1ccc(NC(=O)c2cnn(-c3ccccc3)c2NC(=O)c2ccco2)cc1	inconclusive: 1 µM [activator, partial curve, poor fit]
O=C(COc1ccc(Cl)cc1)N(c1ccc(Cl)cc1)C1CN2CCC1CC2 (centres undefined)	inconclusive: 12.6 µM [inhibitor, single point]
COc1cccc(N(C(=O)c2cnccn2)C(C(=O)NC2CCCCC2)c2ccc(Cl)cc2)c1 (centres undefined)	inactive
O=C(Nc1ccc(F)cc1)C1C2CCC3C(CCC21)C3(Cl)Cl (centres undefined)	inactive
O=C(/C=C/c1ccco1)NC(=S)Nc1ccc(O)c(-c2nc3ccccc3s2)c1	inconclusive: 3.55 µM [inhibitor, full curve, poor fit]
Cc1occc1-c1nnc(SCC(=O)Nc2nc(-c3ccccc3)cs2)o1	inconclusive: 0.231 µM [activator, single point]
O=C(O)c1ccccc1SCc1cn2cc(Cl)ccc2n1	inconclusive: 35.5 µM [activator, single point]
Cc1ccc(OCC(=O)Nc2ccccc2N2CCOCC2)c(C)c1	inactive
O=c1nc2n(c3ccccc13)Cc1ccccc1-2	inactive
CCOc1ccc(NC2C=CS(=O)(=O)C2)cc1 (centres undefined)	inconclusive: 35.5 µM [inhibitor, single point]
O=C1CC(NCCc2ccccc2)C(=O)N1CCc1ccccc1 (centres undefined)	inactive
CCCNC(=O)NS(=O)(=O)c1ccc(Cl)cc1	inactive
Cc1ccc(C2N(C)C(=O)c3ccccc3N2C)cc1 (centres undefined)	inactive

SMILES	Potency
CCN(CC)C(C)CN1c2ccccc2Sc2ccccc21 (centres undefined)	inconclusive: 7.3 µM [inhibitor, single point]
Oc1ccccc1CNCC12CC3CC(CC(C3)C1)C2	inactive
O=C(c1ccccc1)c1c2c(cc3sc4ccccc4[n+]13)-c1cccc3cccc-2c13	inconclusive: 29.1 µM [inhibitor, single point]
O=C(CSc1nccc(-c2cccs2)n1)Nc1cccc(Cl)c1Cl	inconclusive: 20 µM [inhibitor, single point]
CCCCn1c(N)c(N(CC(C)C)C(=O)c2ccc3c(c2)NC(=O)C(C)S3)c(=O)[nH]c1=O (centres undefined)	inconclusive: 35.5 µM [activator, partial curve, poor fit]
COc1ccc2[nH]c(=O)c(C(c3nnnn3C(C)(C)C)N(Cc3ccco3)CC3CCCO3)cc2c1 (centres undefined)	inconclusive: 16.4 µM [inhibitor, single point]
Cc1ccc2nc3sc(C(=O)N4CCCc5ccccc54)c(N)c3cc2c1	inconclusive: 5.17 µM [inhibitor, partial curve, poor fit]
CCOc1ccc(NC(=O)N2CCN(c3ccc(Cl)c(Cl)c3)CC2)cc1	inactive
COc1ccc2cc3c(N)nn(C(=O)c4ccccc4Cl)c3nc2c1	inactive
COc1ccc(-c2noc(CN(C(=O)C(C)Oc3ccc(C)cc3)C(C)C)n2)cc1 (centres undefined)	inconclusive: 1 µM [inhibitor, full curve, poor fit]
CC(=O)O[C@]1(C(C)=O)CC[C@H]2[C@@H]3C=C(Cl)C4=CC(=O)CC[C@]4(C)[C@H]3CC[C@@]21C	inactive
COc1ccc(C(=O)C(C)N(C(=O)c2ccc(Cl)cc2Cl)N2C(=O)C3C4C=CC(C4)C3C2=O)cc1 (centres undefined)	inconclusive: 32.6 µM [inhibitor, single point]
CCCc1ccc(C(=O)NNC(=O)c2ccc(Br)cc2)cc1	inactive
CCn1cc(C(=O)NCCc2ccc(OC)c(OC)c2)c(=O)c2cc(S(=O)(=O)N(C)C3CCCCC3)ccc21	active: 11.2 µM
O=C(O)c1[nH]c2ccccc2c1CC(=O)N1CCOCC1	inactive
COc1cc(C(=O)Nc2ccc3ccccc3c2)cc(OC)c1OC	active: 1.41 µM
C/C(=N/Nc1ccc(C(=O)O)cc1)c1ccc2c(c1)Nc1ccccc1S2	inconclusive: 6.31 µM [activator, single point]
Cc1nn(-c2ccccc2)c(Cl)c1/C=N/NC(N)=O	inactive
CCCCOC(=O)Cn1c(=N)n(CCN(CC)CC)c2ccccc21	inconclusive: 8.91 µM [inhibitor, partial curve, poor fit]
CCN(CC)S(=O)(=O)c1cccc(NC(=O)CCNC(=O)c2ccccc2Cl)c1	inconclusive: 35.5 µM [inhibitor, single point]
Cc1nccn1Cc1ccc(Cl)nc1	inconclusive: 3.16 µM [activator, partial curve]
CC(=O)Oc1ccc(-c2cccc(C(=O)NCCO)c2)cc1	inconclusive: 0.501 µM [activator, full curve, poor fit]
CCCNC(=O)CNC(=S)N(Cc1cc(OC)c(OC)c(OC)c1)C1CCCC1	inconclusive: 0.58 µM [activator, partial curve, poor fit]

A portion from the list above, for reference:
SMILES	Potency
CCOc1ccc(NC(=O)N2CCN(c3ccc(Cl)c(Cl)c3)CC2)cc1	inactive
COc1ccc2cc3c(N)nn(C(=O)c4ccccc4Cl)c3nc2c1	inactive
COc1ccc(-c2noc(CN(C(=O)C(C)Oc3ccc(C)cc3)C(C)C)n2)cc1 (centres undefined)	inconclusive: 1 µM [inhibitor, full curve, poor fit]
CC(=O)O[C@]1(C(C)=O)CC[C@H]2[C@@H]3C=C(Cl)C4=CC(=O)CC[C@]4(C)[C@H]3CC[C@@]21C	inactive
